Reference: PubChem BioAssay AID540276 (National Center for Advancing Translational Sciences (NCATS), 2011)
About 5,400 (1.8%) of roughly 300,000 compounds were called active. The shares of active, inactive and inconclusive entries below differ from those in the screen. Calls come from the whole dose curve; tested in HEK293 cells. Potencies beside an inconclusive call are fits to weak or partial responses and may not hold up.

Assay: qHTS for inhibitors of binding or entry into cells for Marburg Virus
Conditions: Marburg virus pseudotyped entry inhibition, cell reporter; activity change, negative = inhibition: at 37.8 µM (top of the series) unless noted
% is set by controls: 0 for no effect and ±100 for the full control effect; potency is the fitted concentration of half-maximal effect.

Structure (SMILES)	Potency	activity change, negative = inhibition
CC(C)CCn1c(=O)c(C(=O)N/N=C/c2cccc(F)c2)c(O)c2ccccc21	inconclusive: 5.62 µM [inhibitor, single point]	
O=[N+]([O-])c1ccc(N2CCCCCC2)c([N+](=O)[O-])c1		inactive: -24.4%
COc1cc(CNCc2ccccn2)ccc1OCc1ccc(Cl)cc1	inconclusive: 35.5 µM [inhibitor, single point]	
COc1cc(Cn2c(=O)oc3ccc(C)cc32)ccc1OC(C)C	inactive	
O=C(NCCN1CCOCC1)c1cc(-c2cccc(O)c2)on1		inactive: -14.6% [at 46.1 µM]
CN(c1ccc(OCC(=O)OCC(=O)Nc2ccc(Br)cc2)cc1)S(=O)(=O)c1cccs1	inconclusive: 14.1 µM [activator, single point]	
CCOc1ccc(-c2nnn(CC(=O)NCc3ccco3)n2)cc1	inconclusive: 0.0206 µM [inhibitor, full curve, poor fit]	
COc1ccc(S(=O)CC(=O)Nc2ccc(Cl)cc2Cl)cc1 (configuration not stated)	inconclusive: 35.5 µM [inhibitor, single point]	
c1ccc(-c2csc(-n3cnnn3)n2)cc1	inconclusive: 29.1 µM [inhibitor, single point]	
COc1ccc(C(=O)COC(=O)Cn2nnc3ccccc32)cc1Br	inconclusive: 16.4 µM [inhibitor, single point]	
O=C(CN1C(=O)COc2ccccc21)N1CCc2ccccc21	inconclusive: 2.91 µM [inhibitor, single point]	
Cc1c(C(=O)c2ccc(Cl)cc2Cl)cnc2cc3c(cc12)OCO3	inconclusive: 16.4 µM [inhibitor, partial curve, poor fit]	
CC(=O)c1sc(-c2ccc(Cl)cc2)nc1C	inconclusive: 14.1 µM [activator, single point]	
Cc1cc(OCC(=O)Nc2ccncc2)c(C)cc1Br		inactive: -15%
COc1ccc(Oc2nc3c(C)cccn3c(=O)c2/C=C(\C#N)C(N)=O)cc1	inconclusive: 35.5 µM [inhibitor, single point]	
CCCCn1c(SCC(=O)N2CCC(C)CC2)nc2cc(S(N)(=O)=O)ccc21		inactive: 5.83%
O=C(NCc1ccccc1)C(c1ccc(F)cc1)N(Cc1ccc2c(c1)OCO2)C(=O)Cn1nnc(-c2cccs2)n1 (configuration not stated)	inconclusive: 8.2 µM [inhibitor, partial curve]	
CC(C)Cn1c(N)c(C(=O)COC(=O)c2cc(S(=O)(=O)N3CCOCC3)ccc2Br)c(=O)n(C)c1=O	inconclusive: 35.5 µM [inhibitor, partial curve, poor fit]	
O=C(COC(=O)CCC(=O)c1ccc(Cl)cc1)NCc1ccc(F)cc1	inconclusive: 6.31 µM [inhibitor, single point]	
CCN(CC)c1ccc(/C=N/N(c2ccccc2)c2ccccc2)c(O)c1	inconclusive: 17.8 µM [inhibitor, single point]	
CN(Cc1cccs1)C(=O)c1ccc(Cl)c(S(=O)(=O)N2CCCCCC2)c1	inconclusive: 35.5 µM [inhibitor, single point]	
Cc1ccccc1C(=O)NNC(=O)CSc1nc(-c2ccccc2)cc(=O)[nH]1		inactive: -2.29% [at 46.1 µM]
Cc1cccc(NC(=O)COc2cccc3c2CCN(Cc2ccccc2)C3=O)c1C	inconclusive: 3.55 µM [inhibitor, single point]	

Structure (SMILES)	Potency	activity change, negative = inhibition
CCn1c(SCC(=O)Nc2cc(C)ccc2F)nnc1-c1ccccc1O	inconclusive: 28.2 µM [activator, single point]	
COc1ccc(C2CC(=O)c3cc(-c4nc(-c5cccc([N+](=O)[O-])c5)cs4)c(=O)n(-c4ccccc4N)c3C2)cc1 (configuration not stated)		inactive: 6.23% [at 46.1 µM]
Cc1ccc(CNC(=O)c2ccc3c(c2)CCN3S(=O)(=O)c2ccc(Br)cc2)cc1	inconclusive: 35.5 µM [inhibitor, single point]	
COc1cc(OC)cc(C(=O)NNC(=O)CNC(=O)c2ccc(Br)o2)c1	inconclusive: 0.708 µM [inhibitor, partial curve, poor fit]	
CCOC(=O)N1CCN(S(=O)(=O)c2ccc(Br)s2)CC1		inactive: 0%
Oc1ccc(Br)cc1C=Nc1cccn2cc(-c3ccccc3)nc12	inconclusive: 12.6 µM [activator, partial curve, poor fit]	
COc1cc(NC(=O)COC(=O)Cc2ccc(-c3ccccc3)cc2)cc(OC)c1	inconclusive: 6.31 µM [inhibitor, single point]	
COc1ccc2nc(/N=C(\N)NC(=O)Nc3ccccc3)nc(C)c2c1		inactive: -30.2%
COC(=O)c1ccc(NC(=O)Cn2c(=O)oc3ccccc32)cc1	inconclusive: 5.62 µM [activator, single point]	
Oc1ccc(Cl)cc1-c1cc(-c2cccc(Br)c2)n[nH]1	inconclusive: 32.6 µM [inhibitor, single point]	
Cc1ccc(-c2nnc(Nc3ccc(OCC(N)=O)cc3)c3ccccc23)cc1S(N)(=O)=O	inconclusive: 2 µM [activator, full curve, poor fit]	
C=CCc1ccc(OCCn2cccc2C=O)c(OC)c1	inconclusive: 2.59 µM [activator, partial curve]	
Cc1c(C(=O)N(Cc2ccc(Cl)cc2)C2CCS(=O)(=O)C2)oc2ccccc12 (configuration not stated)	inconclusive: 35.5 µM [inhibitor, single point]	
O=C(NCCc1nc2ccccc2n1Cc1ccccc1F)c1ccc(F)cc1		inactive: -22.8% [at 46.1 µM]
O=C(CSc1cccc2cccc(Cl)c12)NCc1cccs1	inconclusive: 2.91 µM [activator, partial curve, poor fit]	
O=C(Nc1cccc(C(=O)N2CCN(c3ccc(F)cc3)CC2)c1)c1ccccc1	inconclusive: 35.5 µM [inhibitor, single point]	
COc1ccc(NC(C)=O)cc1S(=O)(=O)NC(Cc1ccccc1)C(=O)NC(C)c1ccccn1 (configuration not stated)	inconclusive: 31.6 µM [inhibitor, single point]	
Cc1nnc(SCC(=O)N(C)C2CCS(=O)(=O)C2)n1Cc1ccccc1 (configuration not stated)	inconclusive: 0.316 µM [inhibitor, partial curve, poor fit]	
CC(=O)Nc1ccc(NC(=O)C(C)OC(=O)CSCc2cccc(Cl)c2)cc1 (configuration not stated)	inconclusive: 0.224 µM [inhibitor, full curve, poor fit]	
COc1ccc(C(=O)c2cn(Cc3ccccc3)c3ccccc3c2=O)cc1OC		inactive: 2.68% [at 46.1 µM]
CCOCC(O)CNc1ccccc1 (configuration not stated)	inconclusive: 1.26 µM [activator, single point]	
O=C(NCc1ccccc1)C(c1ccccc1)N(Cc1cccs1)C(=O)c1cnccn1 (configuration not stated)	active: 20.6 µM	
O=[N+]([O-])c1ccccc1CNc1ccc(F)c(Cl)c1		inactive: -8.01%

Structure (SMILES)	Potency	activity change, negative = inhibition
COc1ccc(N2CCN(S(=O)(=O)CCNC(=O)c3ccco3)CC2)cc1	inconclusive: 1.41 µM [activator, single point]	
CSc1ccc(S(=O)(=O)NCC(=O)OCC(=O)NC2(C#N)CCCCC2)cc1[N+](=O)[O-]	inconclusive: 5.62 µM [inhibitor, single point]	
O=C(NCCc1cccs1)C12CN(Cc3ccccc3)CC1C(c1cccc([N+](=O)[O-])c1)=NO2 (configuration not stated)		inactive: 3.88%
CCCCNCCS(=O)(=O)NCc1ccc(OC)cc1	inconclusive: 0.0995 µM [activator, full curve, poor fit]	
CCOC(=O)c1cnc(-c2ccccc2)nc1Oc1ccccc1	inconclusive: 6.31 µM [inhibitor, single point]	
O=C(Nc1nc2ccccc2n1CCN1CCCCC1)c1ccc(Cl)cc1		inactive: 2.6%
COc1cccc(CNC(=O)Cc2nc3nc(C)cc(C)n3n2)c1	inconclusive: 0.708 µM [inhibitor, single point]	
N=C1Sc2ccccc2C2=NCCCN12	active: 1.58 µM	
O=C(Nc1ccc(Br)cc1)c1cc(-c2ccc3c(c2)OCO3)on1		inactive: 13.4% [at 46.1 µM]
c1ccc(-c2noc(-c3cccc4ccccc34)n2)nc1	inconclusive: 35.5 µM [inhibitor, single point]	
CCOc1ccccc1-n1nnnc1SCC(=O)Nc1cc2oc3ccccc3c2cc1OC	inconclusive: 2.31 µM [inhibitor, full curve]	
COc1ncnc2sc3c(c12)CCCC3	inconclusive: 32.6 µM [activator, single point]	
C/C(=N\Nc1ccc([N+](=O)[O-])cc1)c1ccc(-n2nncc2C)cc1	inconclusive: 35.5 µM [inhibitor, single point]	
CS(=O)(=O)c1ccc2c(c1)sc1nc(=O)c(/C=C3/C=CC(=O)C(O)=C3)c(N)n12	inconclusive: 9.2 µM [inhibitor, partial curve, poor fit]	
COc1ccccc1N1CCN(Cc2ccccc2F)CC1	inconclusive: 29.1 µM [inhibitor, single point]	
COCn1c(COc2ccc3ccccc3c2)nc2ccccc21	inconclusive: 0.501 µM [activator, full curve, poor fit]	
COc1ccc(CCN2C(=O)c3[nH]nc(-c4ccccc4O)c3C2c2cccc(O)c2)cc1OC (configuration not stated)	inactive	
CN(Cc1ccc(Cl)s1)C(=O)CN1C(=O)N(C)C2(CCCCC2)C1=O	inconclusive: 6.31 µM [activator, single point]	
Nc1nc(CSC(=S)N2CCN(c3ccccc3)CC2)nc(Nc2ccc(F)cc2)n1	inconclusive: 20.6 µM [inhibitor, single point]	
N#Cc1ccc(-n2c(-c3ccccc3)nnc2-c2ccccc2)cc1C#N	inconclusive: 1.46 µM [inhibitor, single point]	
CCOc1ccccc1NC(=O)COC(=O)CC(C)(C)CC1=NS(=O)(=O)c2ccccc2N1	inconclusive: 0.631 µM [inhibitor, full curve, poor fit]	
